Experimental data: article PMC9365671
No constants are given. Whether binding was seen depends on the method and setting. Some entries that bind do so weakly or less than the wild type.

Protein sequences, listed by entry. Tags and fused reporters are not part of them.
UniProt Q12840: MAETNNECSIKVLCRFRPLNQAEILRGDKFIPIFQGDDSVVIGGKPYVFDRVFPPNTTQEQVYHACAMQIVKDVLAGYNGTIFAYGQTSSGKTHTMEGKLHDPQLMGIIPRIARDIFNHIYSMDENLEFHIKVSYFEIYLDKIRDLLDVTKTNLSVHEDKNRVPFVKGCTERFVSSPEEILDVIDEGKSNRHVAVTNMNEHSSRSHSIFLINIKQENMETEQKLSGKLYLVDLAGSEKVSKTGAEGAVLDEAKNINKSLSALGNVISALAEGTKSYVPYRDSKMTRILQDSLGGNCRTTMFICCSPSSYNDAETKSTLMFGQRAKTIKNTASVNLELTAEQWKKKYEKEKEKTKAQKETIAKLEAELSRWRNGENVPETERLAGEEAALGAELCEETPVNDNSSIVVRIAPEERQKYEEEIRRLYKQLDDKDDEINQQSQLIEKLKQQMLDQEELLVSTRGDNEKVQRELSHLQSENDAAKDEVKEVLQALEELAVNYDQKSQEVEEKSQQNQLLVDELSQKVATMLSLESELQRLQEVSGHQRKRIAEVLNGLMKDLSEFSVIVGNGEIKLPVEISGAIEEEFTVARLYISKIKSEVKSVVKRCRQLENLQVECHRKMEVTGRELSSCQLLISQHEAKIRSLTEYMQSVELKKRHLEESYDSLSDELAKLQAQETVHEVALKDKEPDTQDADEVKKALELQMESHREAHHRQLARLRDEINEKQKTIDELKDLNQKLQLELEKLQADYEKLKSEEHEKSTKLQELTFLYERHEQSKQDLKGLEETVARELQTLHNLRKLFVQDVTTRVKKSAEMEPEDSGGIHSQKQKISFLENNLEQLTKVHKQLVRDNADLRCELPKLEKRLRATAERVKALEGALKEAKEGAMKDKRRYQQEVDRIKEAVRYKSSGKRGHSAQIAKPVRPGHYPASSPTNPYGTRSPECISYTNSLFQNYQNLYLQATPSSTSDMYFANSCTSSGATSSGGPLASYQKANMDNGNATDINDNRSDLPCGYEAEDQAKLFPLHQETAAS
UniProt Q07866: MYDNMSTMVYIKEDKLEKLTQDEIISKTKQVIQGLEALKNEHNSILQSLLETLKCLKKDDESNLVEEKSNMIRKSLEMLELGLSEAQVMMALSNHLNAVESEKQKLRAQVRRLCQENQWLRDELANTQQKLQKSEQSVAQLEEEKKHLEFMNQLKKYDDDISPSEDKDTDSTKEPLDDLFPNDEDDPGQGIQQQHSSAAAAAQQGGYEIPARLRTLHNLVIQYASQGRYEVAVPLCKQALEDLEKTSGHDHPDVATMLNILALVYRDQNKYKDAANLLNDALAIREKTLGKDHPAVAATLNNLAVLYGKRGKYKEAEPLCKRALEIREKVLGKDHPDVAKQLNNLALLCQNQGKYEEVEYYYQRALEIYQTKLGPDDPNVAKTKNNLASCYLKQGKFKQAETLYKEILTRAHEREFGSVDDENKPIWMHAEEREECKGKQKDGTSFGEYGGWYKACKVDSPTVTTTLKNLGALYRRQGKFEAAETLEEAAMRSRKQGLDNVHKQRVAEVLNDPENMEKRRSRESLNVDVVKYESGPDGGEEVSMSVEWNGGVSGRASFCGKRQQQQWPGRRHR

Biological target: full-length human KIF5A-mScarlet-StrepII (human) (UniProt Q12840)
Test: SEC-MALS; KIF5-KLC1 complexes co-expressed in Sf9 and co-purified; BioSep SEC-s4000 column, GF150 buffer (25 mM HEPES-KOH, 150 mM KCl, 2 mM MgCl2); both purified

binding: binds
Substance: 6xHis-FLAG-human KLC1 (co-expressed with KIF5) (from UniProt Q07866 1-573)
